{
  "source": "paper PMC9249791",
  "about": "“Molecular dissection of the glutamine synthetase-GlnR nitrogen regulatory circuitry in Gram-positive bacteria” (Nature Communications, 2022)",
  "target": "T1, Bacillus subtilis GlnR, full length (B. subtilis), P37582",
  "T1 chain": "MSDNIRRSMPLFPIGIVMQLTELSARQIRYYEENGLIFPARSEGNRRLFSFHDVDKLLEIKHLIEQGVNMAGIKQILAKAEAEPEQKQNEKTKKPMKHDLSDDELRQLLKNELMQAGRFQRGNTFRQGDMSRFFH",
  "assay": "negative stain EM; Bs GS mixed 1:1 with FL GlnR; 25 mM Tris pH 7.5, 200 mM NaCl, 5% glycerol, 1 mM MgCl2, 5 mM glutamine; 2D class averages; both purified",
  "settings": "remark: other sources report otherwise",
  "note": "These are yes or no findings as the source states them, for the method shown. Some entries that bind do so weakly or less than the wild type.",
  "data": [
    {"binder": "Bacillus subtilis glutamine synthetase, P12425 1-444 (enzyme) MAKYTREDIEKLVKEENVKYIRLQFTDILGTIKNVEIPVSQLGKALDNKVMFDGSSIEGFVRIEESDMYLYPDLNTFVIFPWTAEKGKVARFICDIYNPDGTPFEGDPRNNLKRILKEMEDLGFSDFNLGPEPEFFLFKLDEKGEPTLELNDKGGYFDLAPTDLGENCRRDIVLELEEMGFEIEASHHEVAPGQHEIDFKYAGAVRSCDDIQTFKLVVKTIARKHGLHATFMPKPLFGVNGSGMHCNLSLFKNGVNAFFDENADLQLSETAKHFIAGIVKHATSFTAVTNPTVNSYKRLVPGYEAPCYVAWSAQNRSPLIRIPASRGISTRVEVRSVDPAANPYLALSVLLAAGLDGIKNKLEAPAPIDRNIYVMSKEERMENGIVDLPATLAEALEEFKSNEVMVKALGEHLFEHFIEAKEIEWDMFRTQVHPWEREQYMSQY", "values": [
      {"measurement": "binding", "result": "binds"}
    ]}
  ]
}
